# Measured values as given in article PMC10183829 (2023).
# B1: mCh-AtC53 [Arabidopsis thaliana] / GST-GABARAP [human] (parent complex)
# chain 1: MPSQDDVQNLPIDITFSRLGEWLVDRKRIPADWRKRVAVIRVKILKEFSSLPKEIDPFFQTLDPEVIGYLEVKKVYEILLKTTPESRNIFGRLSGASGVWEAIVRAFEKDHIYLGEAAQIIIQNVNYEIPYLKKQVQKVQQQMTELDRKEADIKRSVALSATKYEDACRELGLQGNNVRRELLETASSLPSTFSKILEVINSDSVTGAMEYYSAYVQDVHTEKDKPLRIVLQNLKYIRENPPSLSVFGDSEGLDADNIQSSENANGTDAAADSIDWDITVETPEIDWDVSMVEEVDSGNDLGSYEIVNASDIPENSPFKVEESQGLEVDVSEISWDVSVETPQVEEIGDSALLESNQTQLTDSTTQVLGSGGERSQLLETEYRNKILDDLYEVKAFLNQRLIELRNEDTLSLQHHVQAVSPMVLQQYSPETIEPMVVDISMAISLLTNKKSRDLIMILNSKRFLDRLVSELEEKKHREVKLRESLKDVGRRRMELQNSLSAIWPKQEAALSKTRELKELCETSLSSMFDGRPVNIRGEINTLLNAGVSA
# chain 2: MKFVYKEEHPFEKRRSEGEKIRKKYPDRVPVIVEKAPKARIGDLDKKKYLVPSDLTVGQFYFLIRKRIHLRAEDALFFFVNNVIPPTSATMGQLYQEHHEEDFFLYIAYSDESVYGL
# Variants of: B1
# Experiment: microscopy-based protein-protein interaction assay (on-bead binding, confocal); 1 μM C53 protein; glutathione-sepharose beads with GST-GABARAP; read off a plot
row,Variant,response
1,"chain 1 W276A, chain 1 W287A, chain 1 W335A",~0.27 normalized fluorescence
